# Results taken from PubChem BioAssay AID1487 (National Center for Advancing Translational Sciences (NCATS), 2009).
# The list shows a part of the results. The main result of the screen is listed elsewhere. These columns were measured beside it and carry no call. Compounds called inactive in the main read-out are mostly missing here. Potencies come from curve fits of mixed quality, noted in brackets.
# Experiment: qHTS Assay for Modulators of Lamin A Splicing
# Conditions: HeLa LMNA splicing GFP/RFP minigene ratio, 48 h
# Summary of the method: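 Read-out is the ratio of GFP to DsRed2 object intensity, acquired by 488 nm laser-scanning cytometry on HeLa lamin A-EGFP minigene reporter cells. Compound incubation 48 hrs at 37 °C in Opti-MEM with 2% FBS; DMSO 0.5% final.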
# [1] = measured here: GFP splicing reporter channel
# [2] = measured here: RFP viability control channel
Structure (SMILES),AC50 [1],AC50 [2]
CCCCn1c(NC(=S)Nc2ccccc2)nc2ccccc21,"35.5 µM [falling, single point]","35.5 µM [falling, single point]"
COc1ccccc1/C=C/C(=O)c1ccc(Cl)cc1,"28.2 µM [falling, single point]","25.1 µM [falling, partial curve]"
Cc1ccc(C(=O)CC(Nc2ccc(F)cc2)c2ccccc2)cc1 (stereo not drawn),,"35.5 µM [rising, single point]"
COc1ccccc1Cn1ccn(Cc2c(F)cccc2Cl)c(=O)c1=O,"15.8 µM [rising, partial curve]","12.6 µM [rising, single point]"
Cc1ccc(C(=O)N2CCN(c3ccc(C(F)(F)F)cn3)CC2)c(C)c1,,"15.8 µM [rising, partial curve]"
Cc1ccc(C(=O)Nc2nc(C)c(C(=O)Nc3ccc4c(c3)CCC4)s2)cc1,"11.2 µM [falling, partial curve]",
COc1cc(OC)cc(C(=O)NCCN2C(=O)S/C(=C\c3cccs3)C2=O)c1,"7.94 µM [falling, partial curve]",
COc1ccc(C(=O)NC(=S)N2CCN(c3ccc([N+](=O)[O-])cc3)CC2)cc1,"10 µM [rising, partial curve]","35.5 µM [rising, partial curve]"
COc1cccc(-c2ccc3ncnc(NCc4ccc(OC)cc4OC)c3c2)c1,"10 µM [falling, partial curve, poor fit]",
Cc1nn(Cc2ccc(F)cc2Cl)c(C)c1[N+](=O)[O-],"0.00794 µM [falling, full curve]","0.178 µM [falling, full curve, poor fit]"
O=C(Nc1nc(SCc2ccc(F)cc2)ns1)c1ccco1,"14.1 µM [rising, single point]","17.8 µM [rising, single point]"
CC(C)(C)c1ccc(/C=N/NC(=S)NCc2ccccc2)cc1,,"3.98 µM [rising, full curve, poor fit]"
Cn1nc([N+](=O)[O-])nc1Sc1nnc(-c2ccccc2)o1,"7.94 µM [falling, partial curve]","14.1 µM [falling, single point]"
Cc1cc2c3c(c1)C(C)(c1ccccc1)CC(C)(C)N3C(=O)C21C(C#N)=C(N)OC2=C1C(=O)CC(C)(C)C2 (stereo not drawn),"20 µM [falling, single point]",
Cc1ccc(C(=O)/C=C/c2ccc(Br)cc2)o1,"2.82 µM [falling, single point]","17.8 µM [falling, single point]"

# Part of the list above, reformatted:
Structure (SMILES) | AC50 [1] | AC50 [2]
COc1ccc(C(=O)NC(=S)N2CCN(c3ccc([N+](=O)[O-])cc3)CC2)cc1 | 10 µM [rising, partial curve] | 35.5 µM [rising, partial curve]
CC(C)(C)c1ccc(/C=N/NC(=S)NCc2ccccc2)cc1 |  | 3.98 µM [rising, full curve, poor fit]
